Measured values: paper PMC9740379
Results are given in words; binding and its absence hold for the method and conditions named. In cells and extracts the contact can be indirect. These calls come from enrichment with a bait or labelling near it, and not all partners need be listed. Tags and fused reporters may be left off the sequences shown.

Target: T1, CD229 (signaling lymphocytic activation molecule family 3), FLAG-tagged, overexpressed in MM cells (human) (UniProt Q9HBG7)
T1 sequence: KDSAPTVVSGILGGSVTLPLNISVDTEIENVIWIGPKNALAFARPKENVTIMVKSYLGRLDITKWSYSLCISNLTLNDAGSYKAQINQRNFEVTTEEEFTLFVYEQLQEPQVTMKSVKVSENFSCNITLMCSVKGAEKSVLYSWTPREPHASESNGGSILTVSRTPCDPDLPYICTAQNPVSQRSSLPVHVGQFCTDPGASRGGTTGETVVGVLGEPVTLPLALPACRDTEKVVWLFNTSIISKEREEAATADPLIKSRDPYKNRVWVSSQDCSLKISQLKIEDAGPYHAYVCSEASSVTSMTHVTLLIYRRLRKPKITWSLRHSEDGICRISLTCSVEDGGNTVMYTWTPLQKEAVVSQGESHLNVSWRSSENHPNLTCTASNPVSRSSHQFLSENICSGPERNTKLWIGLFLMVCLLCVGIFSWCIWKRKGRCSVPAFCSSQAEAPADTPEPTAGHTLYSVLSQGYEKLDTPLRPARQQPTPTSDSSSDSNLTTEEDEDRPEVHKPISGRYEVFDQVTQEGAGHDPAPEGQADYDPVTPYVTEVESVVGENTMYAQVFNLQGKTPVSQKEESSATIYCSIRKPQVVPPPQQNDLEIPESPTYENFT
Test: affinity purification with mass spectrometry; Co-IP coupled with MS (Co-IP/MS) from CD229-OE cells; proteins separated by SDS-PAGE, gel bands digested with trypsin, Q-Exactive

binding: binds
B1: RAS Protein Activator Like 3 (RASAL3) (protein, UniProt Q86YV0 1-1011)
chain: MDPPSPSRTSQTQPTATSPLTSYRWHTGGGGEKAAGGFRWGRFAGWGRALSHQEPMVSTQPAPRSIFRRVLSAPPKESRTSRLRLSKALWGRHKNPPPEPDPEPEQEAPELEPEPELEPPTPQIPEAPTPNVPVWDIGGFTLLDGKLVLLGGEEEGPRRPRVGSASSEGSIHVAMGNFRDPDRMPGKTEPETAGPNQVHNVRGLLKRLKEKKKARLEPRDGPPSALGSRESLATLSELDLGAERDVRIWPLHPSLLGEPHCFQVTWTGGSRCFSCRSAAERDRWIEDLRRQFQPTQDNVEREETWLSVWVHEAKGLPRAAAGAPGVRAELWLDGALLARTAPRAGPGQLFWAERFHFEALPPARRLSLRLRGLGPGSAVLGRVALALEELDAPRAPAAGLERWFPLLGAPAGAALRARIRARRLRVLPSERYKELAEFLTFHYARLCGALEPALPAQAKEELAAAMVRVLRATGRAQALVTDLGTAELARCGGREALLFRENTLATKAIDEYMKLVAQDYLQETLGQVVRRLCASTEDCEVDPSKCPASELPEHQARLRNSCEEVFETIIHSYDWFPAELGIVFSSWREACKERGSEVLGPRLVCASLFLRLLCPAILAPSLFGLAPDHPAPGPARTLTLIAKVIQNLANRAPFGEKEAYMGFMNSFLEEHGPAMQCFLDQVAMVDVDAAPSGYQGSGDLALQLAVLHAQLCTIFAELDQTTRDTLEPLPTILRAIEEGQPVLVSVPMRLPLPPAQVHSSLSAGEKPGFLAPRDLPKHTPLISKSQSLRSVRRSESWARPRPDEERPLRRPRPVQRTQSVPVRRPARRRQSAGPWPRPKGSLSMGPAPRARPWTRDSASLPRKPSVPWQRQMDQPQDRNQALGTHRPVNKLAELQCEVAALREEQKVLSRLVESLSTQIRALTEQQEQLRGQLQDLDSRLRAGSSEFDSEHNLTSNEGHSLKNLEHRLNEMERTQAQLRDAVQSLQLSPRTRGSWSQPQPLKAPCLNGDTT
